Measurements reported in US10113189B2, “Isolation and characterization of a novel pythium omega 3 desaturase with specificity to all omega 6 fatty acids longer than 18 carbon chains” (priority 2006, dated 2018).

Test system: ω-3 desaturase from Pythium irregulare
Assay type: cell-based, S. cerevisiae
Settings: yeast transformant pYES2-O3; 100 μM exogenously supplied fatty acid substrate, 16° C., 4 days; GC of fatty acid methyl esters
Method: The plasmids containing the full length O3 genes in the yeast expression vector pYES2.1/V5-His-TOPO were transformed into yeast S. cerevisiae. The positive transformants were selected for uracil auxotrophy on DOB-U agar plates. To characterize the ω-3 desaturase enzyme activity, positive clones and the control (yeast with pYES2.1 vector) were cultured overnight in DOB-U liquid medium at 28° C. and then grown in induction medium (DOB-U+Gal+Raf) containing 100 μM of various exogenously supplied fatty acid substrates at 16° C. for 4 days. The whole yeast cells expressing Pythium ω-3 genes were harvested by centrifugation and washed twice with distilled water. Then the yeast cells were directly transmethylated with methanolic HCl (3N) at 80° C. for 1 hour. The resultant methyl esters were extracted with hexane and analyzed by gas chromatography (GC). GC was carried out as described in WO 2005/083053.

SMILES	Substrate (%)
CCCCC/C=C\C/C=C\CCCCCCCC(=O)O [LA, linoleic acid]	25.56
CCCCC/C=C\C/C=C\C/C=C\CCCCCCC(=O)O [DGLA, dihomo-γ-linolenic acid]	17.78
CCCCC/C=C\C/C=C\C/C=C\CCCCC(=O)O [GLA, γ-linolenic acid]	22.79
